Results from PMC7819943, “Rice protein-binding microarrays: a tool to detect cis-acting elements near promoter regions in rice”.
The other results are listed elsewhere or left out.

By UniProt entry, the sequences of proteins in these tests, tags left out.
UniProt Q0JBA9, entry or part of it: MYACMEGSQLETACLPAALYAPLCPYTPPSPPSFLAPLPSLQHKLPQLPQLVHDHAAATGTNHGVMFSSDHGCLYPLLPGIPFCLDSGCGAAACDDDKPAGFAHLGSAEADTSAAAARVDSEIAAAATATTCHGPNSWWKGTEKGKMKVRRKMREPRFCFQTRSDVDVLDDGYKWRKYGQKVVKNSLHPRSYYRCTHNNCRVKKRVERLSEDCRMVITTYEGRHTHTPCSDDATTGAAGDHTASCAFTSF

Target: OsWRKY34 (Oryza sativa, UniProt Q0JBA9 1-250)
Experiment: protein-binding microarray (RPBM); PBS, 2% BSA, 51.3 ng/ul salmon testes DNA, 50 uM zinc acetate, 200 nM TF, 25 C, 1 h; high values mean tight binding
Conditions: protein: recombinant; tags: N-terminal polyhistidine and DsRed monomer fusion (pET32a); label: CyDye5-dUTP incorporated in the synthesized complementary strand; 3' TTTTT single-stranded linker to array surface; dsDNA, one strand shown
In short: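 Binding signal is reported as fluorescence intensity per feature (arbitrary units) from an Axon 4000B scanner. Incubation used 200 nM of each Ni–NTA-purified, N-terminally polyhistidine- and DsRed-fused transcription factor from E. coli BL21-CodonPlus on a double-stranded custom Agilent array for 1 h at 25 °C, with 50 µM zinc acetate in the buffer, followed by washing.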

| Sequence | binding signal |
| --- | --- |
| CGTTCCTTGGTATTCTCCCTCGTGGTGTAAATGTACGTATCGGAGTCACCTAGTGCAG | 9740 fluorescence intensity (a.u.) |
| ATCATTCACCCAAATCGTTTGGTTCGCTATCCTCGCGCTCCGGAGTCACCTAGTGCAG | 12100 fluorescence intensity (a.u.) |
| TGGTGCATTTGCTGCAAATGCTGCTAGTTTTGTTGCTTTTCGGAGTCACCTAGTGCAG | 8520 fluorescence intensity (a.u.) |
| GACTTGATTTTTTTTCTTAATTTGACCTTTTAATTTCAAACGGAGTCACCTAGTGCAG | 8080 fluorescence intensity (a.u.) |
| AACATTAACTGTTTTCTTTAGCAACTACTGATCGATACACCGGAGTCACCTAGTGCAG | 8100 fluorescence intensity (a.u.) |
| GGGGTGGGGTGGAGAGGGTGAAGCGGCGACGGTGACGATGCGGAGTCACCTAGTGCAG | 9870 fluorescence intensity (a.u.) |
| CTGCCCCACATCCCCGGGCCCACCTGCCAGTCCCCGCCACCGGAGTCACCTAGTGCAG | 9930 fluorescence intensity (a.u.) |
| TTCACTCAAATGACTTGCTTTTCGCGCTTCTGGATCAATCCGGAGTCACCTAGTGCAG | 8800 fluorescence intensity (a.u.) |
| CGTTGACTCCATCTCTTTAACATATTTTAGGAGCATGCTTCGGAGTCACCTAGTGCAG | 8610 fluorescence intensity (a.u.) |
| GGCGGATGTGGGGTGAGAAGCATCCGCGCAGCCGCGCGCGCGGAGTCACCTAGTGCAG | 8720 fluorescence intensity (a.u.) |
| GCTACATCTAGACAAGGGGAGGGCGGTGCATTGGAGACGACGGAGTCACCTAGTGCAG | 10700 fluorescence intensity (a.u.) |
| ATGAGTTTTCCTTTTTTTTAAAATCTTTTCTTGAAGGTTTCGGAGTCACCTAGTGCAG | 9510 fluorescence intensity (a.u.) |
| GCAACTGCACATGTGCTTATTTAGTTTCTGCATTGGTCAACGGAGTCACCTAGTGCAG | 12200 fluorescence intensity (a.u.) |
| GTAGCACCAGTTAATTTATCTATATATATGTGTGTTTTACCGGAGTCACCTAGTGCAG | 10600 fluorescence intensity (a.u.) |
| ATGCTTGCGAGTCGTCTACATATGCTTGGAATTTTTTTTCCGGAGTCACCTAGTGCAG | 11900 fluorescence intensity (a.u.) |
| ACACCTGCGCTCGCATACAACGCTCGACTTCTCTTCTCTCCGGAGTCACCTAGTGCAG | 9800 fluorescence intensity (a.u.) |
| CATCGAGCGTCCATCATGCGCTTATCATCGACAGTTTCTTCGGAGTCACCTAGTGCAG | 8040 fluorescence intensity (a.u.) |
| CGTCTCGCCGGAGCGTTGACGAGGACCTCTCTACTCTTCACGGAGTCACCTAGTGCAG | 9020 fluorescence intensity (a.u.) |
| TACATGGGAGTAGAGGCGGGCGGCGGCTGCGGTGGGAGGGCGGAGTCACCTAGTGCAG | 10800 fluorescence intensity (a.u.) |
| CGCTCTACGGCTCACAACCATCGTCAACCAGCTTGCAACCCGGAGTCACCTAGTGCAG | 9280 fluorescence intensity (a.u.) |
| ACTCAAAAGATTCGTCATTCGTCTCGCGATTTTCATGTAACGGAGTCACCTAGTGCAG | 10200 fluorescence intensity (a.u.) |
| CCATTAGCGTATGTATTTTTTTCTGGTTCCTATGGGGATCCGGAGTCACCTAGTGCAG | 8640 fluorescence intensity (a.u.) |
| GACTTACCATCTGACCTTCCCTGGCCTGGCCCAGCTATACCGGAGTCACCTAGTGCAG | 8970 fluorescence intensity (a.u.) |
| CAAGCCTCATCATCCGGTTTTCTTCCTTGGTTCCCGCACGCGGAGTCACCTAGTGCAG | 10900 fluorescence intensity (a.u.) |
| CCCGCTCTCTCCGATCGCTGCCACCAGCTACCGGCCATCGCGGAGTCACCTAGTGCAG | 9340 fluorescence intensity (a.u.) |
| CGCACTGGCCTCCACCCATCTCTCTCACCGCCTCTGCAGCCGGAGTCACCTAGTGCAG | 8450 fluorescence intensity (a.u.) |
| ACATCCCCGACCCGCCCCGCCTCACCGGTCATTCGCAGCCCGGAGTCACCTAGTGCAG | 9440 fluorescence intensity (a.u.) |

| Sequence | binding signal |
| --- | --- |
| CTGGCTATAAATTTATAGCCCGCTGCTCTTCTCTTTTACTCGGAGTCACCTAGTGCAG | 8660 fluorescence intensity (a.u.) |
| CTCCTCCTCGAGACCTCGGCACCTCGCACGCCACGCTTCTCGGAGTCACCTAGTGCAG | 9200 fluorescence intensity (a.u.) |
| TTCCTCCTAACCGTGCAATTAGTTTTTTCATTTATCTATACGGAGTCACCTAGTGCAG | 8840 fluorescence intensity (a.u.) |
| TCCCTCCGCCGACGGCTCCCTCCTCTCCCACGTCCGCGCACGGAGTCACCTAGTGCAG | 8350 fluorescence intensity (a.u.) |
| TACTGTGCACCTTATCACTCAGCCTAAGCTGTCATATAGACGGAGTCACCTAGTGCAG | 9720 fluorescence intensity (a.u.) |
| GCCTCACCTTTCACTTCATCCATCTCTACACATCAGCAATCGGAGTCACCTAGTGCAG | 12100 fluorescence intensity (a.u.) |
| CCAACACAAGCAGAGATGAGGACCGCTTTGACCTCCGTAACGGAGTCACCTAGTGCAG | 8430 fluorescence intensity (a.u.) |
| CCACTCACCACCACTATCAACACAACTCTTGCATCACCATCGGAGTCACCTAGTGCAG | 9940 fluorescence intensity (a.u.) |
| GGAGGCTTCACTGGTGGCGGGGCCGGAGTCGAGGGGTTCTCGGAGTCACCTAGTGCAG | 9360 fluorescence intensity (a.u.) |
| CAAAGTCCCATTCTGAAACCTGCCTATATATACAGCGCACCGGAGTCACCTAGTGCAG | 8520 fluorescence intensity (a.u.) |
| AAGTTTGACCATTTCCACTAGTCAAAAGCTTGTCAGTAAACGGAGTCACCTAGTGCAG | 8240 fluorescence intensity (a.u.) |
| CTCATTTTTCATGCCCACTTTGCCACTCGACGCCTCAATTCGGAGTCACCTAGTGCAG | 9180 fluorescence intensity (a.u.) |
| GTGTAGTTCTTTTTTATTAGAATCCTATTTTTTTCTATTCCGGAGTCACCTAGTGCAG | 10800 fluorescence intensity (a.u.) |
| TTAGGTCGGGTTTTTCCCGTTTCTCGTTTCTATGGCGATGCGGAGTCACCTAGTGCAG | 8750 fluorescence intensity (a.u.) |
| CCTTAAAACTGTCAGATTTTTTGTTTTTTTTGTTACAGCTCGGAGTCACCTAGTGCAG | 9700 fluorescence intensity (a.u.) |
| AACACCTCGCCGACAACCTTTGCTCCGGCGACCGGAGGTCCGGAGTCACCTAGTGCAG | 9170 fluorescence intensity (a.u.) |
| GCCGCCGCGCGCGTCTATCCCCTCGCCGCCGCCGCCGTCTCGGAGTCACCTAGTGCAG | 8080 fluorescence intensity (a.u.) |
| CACCAGCTTTTCCTTCTTCTCTCTCTTCTCCGGCGTCCATCGGAGTCACCTAGTGCAG | 8560 fluorescence intensity (a.u.) |
| TTCAAATGCTTCCTGTTTGTCTACTTTTCTACTTTATTTACGGAGTCACCTAGTGCAG | 8740 fluorescence intensity (a.u.) |
| CTCCCTTGTCTTCCTCCTCTTCGAACCGCCTCTCATCGCCCGGAGTCACCTAGTGCAG | 8380 fluorescence intensity (a.u.) |
| GGTCGTTTGGTTACCTGCACAGCTGTCGGGCCCGACTCCACGGAGTCACCTAGTGCAG | 9620 fluorescence intensity (a.u.) |
| GGGGTGGCGGTGGCGGTGGTGGTGGTGGTGGTGGTGGAGTCGGAGTCACCTAGTGCAG | 41600 fluorescence intensity (a.u.) |
| TATCCACCGCTCGCGACCTCCGCAATTCCACCGTATTCTCCGGAGTCACCTAGTGCAG | 10300 fluorescence intensity (a.u.) |
| TTTGTACCAGGTGGCAGTTAAAGTTGAAACCCTGTCTGGACGGAGTCACCTAGTGCAG | 8700 fluorescence intensity (a.u.) |
| GGTTCATCTGCCGAATTGTTTCGGTGGGTTTGGTGGGAAACGGAGTCACCTAGTGCAG | 12900 fluorescence intensity (a.u.) |
| ATGCATCCGTGGCATTGCATTGCATACTTATCCTACAAATCGGAGTCACCTAGTGCAG | 8260 fluorescence intensity (a.u.) |
| ACTTACCTAATTCAAGTCACTGTCTTGCTCATCGAGATTACGGAGTCACCTAGTGCAG | 8260 fluorescence intensity (a.u.) |

Quoted at random: four records from the list

| Sequence | binding signal |
| --- | --- |
| GTGTAGTTCTTTTTTATTAGAATCCTATTTTTTTCTATTCCGGAGTCACCTAGTGCAG | 10800 fluorescence intensity (a.u.) |
| CTCCTCCTCGAGACCTCGGCACCTCGCACGCCACGCTTCTCGGAGTCACCTAGTGCAG | 9200 fluorescence intensity (a.u.) |
| ACTTACCTAATTCAAGTCACTGTCTTGCTCATCGAGATTACGGAGTCACCTAGTGCAG | 8260 fluorescence intensity (a.u.) |
| CACCAGCTTTTCCTTCTTCTCTCTCTTCTCCGGCGTCCATCGGAGTCACCTAGTGCAG | 8560 fluorescence intensity (a.u.) |
